Entries after “also recorded” stand apart in the source; their conditions may differ. For at least one compound, name, drawing or mass did not settle the structure.
Columns and labels:
Format in all cases: cell-based, human
GBM6 cells = assay: MV growth kinetics (virus production, titration on Vero cells); conditions: GBM6, 3 μM for 48 hours prior to infection, 48 hours post-infection
GBM76 cells = assay: as above; conditions: GBM76, 3 μM for 48 hours prior to infection, 48 hours post-infection
[1] = tested on: STAT1 and STAT3 phosphorylation in GBM39 cells; assay: p-STAT1/3 activation by immunoblot; conditions: GBM39, 3 μM, MV MOI 5, 4 hours post-infection
[2] = tested on: RSAD2, OAS2, MX1, MX2 and SAMD9 expression in GBM39 cells; assay: ISG expression by qRT-PCR
GBM39 cells [3] = assay: MV growth kinetics (virus production, titration on Vero cells); conditions: GBM39, 3 μM for 48 hours prior to infection, MV-NIS MOI 0.1, 48 hours post-infection
Method: MV strains and virus propagation. Generation and characterization of MV strains expressing human iodide symporter (MV-NIS), human carcinoembryonic antigen (MV-CEA) and green fluorescent protein (MV-GFP) has been described elsewhere (see, e.g., Dingli et al. 2004 Blood 103:1641-1646; Peng et al. 2002 Cancer Res 62:4656-4662; Duprex et al. 1999 J Virol 73:9568-9575). Viruses were propagated on Vero cells and viral stocks were prepared by repeated freezing-thawing and stored frozen at −80° C. MV titers were determined in tissue culture infectious doses 50% (TCID50) per ml by titration on Vero cells described elsewhere (see, e.g., Iankov et al. 2009 Mol Ther 17:1395-1403). High grade purified viral stocks from supernatant released viruses were prepared as described elsewhere (see, e.g., Langfield et al. 2011 Methods Mol Biol 737:345-366).
MV growth kinetics. Growth kinetics of MV in primary GBM cells was determined by titration on Vero cells for the cell-associated virus at different time points post infection with MV-NIS. Briefly, the 4×10^5 cells were inoculated at a MOI of 0.1 with MV-NIS and incubated in 6-well cell culture plates (Falcon). […] Wells positive for syncytia were counted at 72 hours and virus titers were calculated as described above. […]

GBM39 cells [4] = assay: MV anti-tumor effect in vitro (MTT cell viability); conditions: GBM39, 3 μM pre-treatment
MV permissive GBM cells = assay: Virus production after Jakafi pre-treatment; conditions: 3 μM for 48 hours prior to infection, 48 hours post-infection

N#CC[C@H](C1CCCC1)n1cc(-c2ncnc3[nH]ccc23)cn1 [Jakafi, Ruxolitinib]
MV virus production vs DMSO (GBM6 cells): significantly increased
MV virus production vs DMSO (GBM76 cells): significantly increased
phosphorylation of STAT1 and STAT3 upon MV infection [1]: inhibited; also recorded: blocked
baseline ISG expression (RSAD2, OAS2, MX1, MX2, SAMD9) vs control ([2]; GBM39, 3 μM for 48 hours, uninfected): significantly decreased; also recorded: decreased baseline ISG expression
ISG induction upon MV infection ([2]; GBM39, 3 μM pretreatment, MV MOI 5): blocked ISG induction
MV-NIS virus production vs control (GBM39 cells [3]): significantly increased
MV mediated cell killing vs control treated cells (GBM39 cells [4]): increased MV mediated cell killing
MV virus production vs DMSO (MV permissive GBM cells): further increased virus production

From US12414974B2, “Materials and methods for treating cancer” (priority 2017, dated 2025)
